PubChem BioAssay AID652259 – Drosophila RNAi Screening Center | 2013
Assay: 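Knock-downs that push a Wingless-driven reporter up or down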 (primary screen). Cell system: Drosophila clone 8 imaginal disc epithelial cells. Knock-down reagent: long dsRNA against Drosophila genes. Treatment: pathway stimulated by co-transfected Wingless expression plasmid. Measured: 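Dual luciferase reads per well after Wingless plasmid stimulation: reporter firefly light and Renilla control light; activity is firefly divided by Renilla, a ratio not deposited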. Scale: firefly reporter light: higher = more Wg reporter light, before normalisation; Renilla control light: higher = more transfected or surviving cells. Rule for the call: 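Strong candidates differ from their plate mean by at least two out of four per-plate statistical tests; weak candidates meet just one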. Calls: active = candidate regulator (raises or lowers reporter); inactive = not a candidate.
The screen tested about 22,000 reagents; below is an unselected part of those with a known target gene and a result. In the full data, 233 (1.1%) got an active call. 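Light values are raw, unnormalised plate reads; the ratio scores behind the reporter calls were not deposited.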 Names joined by + are all predicted targets of the reagent. Not given: the amount of reagent, the time to read-out, the dose of the treatment.

no.	gene	amplicon	reporter change call, replicate 1	firefly reporter light, replicate 1	firefly reporter light, replicate 2	Renilla control light, replicate 1	Renilla control light, replicate 2	outcome
1	CG42518 + MED9	DRSC06917		17547		5320		inactive
2	CG10953	DRSC06021		9425		3155		inactive
3	CG33769	DRSC11716		21559		6339		inactive
4	Cpr64Ab	DRSC08461		7479		3024		inactive
5	CG12035	DRSC08238		13536		3168		inactive
6	CG7692	DRSC10902		6471		2692		inactive
7	CG6441	DRSC02957		1240	4857	507	1608	inactive
8	CG11191	DRSC06056		7544		3334		inactive
9	CG15579	DRSC18067		16208		8257		inactive
10	RhoGAPp190	DRSC20097		31303		12176		inactive
11	RhoGAPp190	DRSC20099		3543	6154	699	2419	inactive
12	Nhe2	DRSC03172		2073	4604	641	2294	inactive
13	Nhe2	DRSC03377		1895	5060	577	2259	inactive
14	CG9581	DRSC20695		4056	10581	1544	4091	inactive
15	CG9581	DRSC22247		4.29e5	5.35e5	1.87e5	2.96e5	inactive
16	CG4630	DRSC06874		18037		6452		inactive
17	CG17601	DRSC20639		14178		8720		inactive
18	snu	DRSC16589		5681	11843	1565	3091	inactive
19	sphinx1	DRSC10993		2192	4562	1584	2372	inactive
20	CG3548	DRSC04387		10923		2932		inactive
21	CG10237	DRSC02029		14272		5194		inactive
22	MFS14	DRSC06524		17692	7.25e5	6250	2.78e5	inactive
23	CG15155	DRSC02456		2118	6969	1113	2657	inactive
24	Charon	DRSC00679		6884		3920		inactive
25	Trs31	DRSC05975		15131		4725		inactive
26	exu	DRSC07615		13752		3332		inactive
27	MetRS	DRSC22533		6.65e5	7.27e5	2.70e5	1.18e5	inactive
28	CG13117	DRSC02215		1677	4976	768	2672	inactive
29	CG8399	DRSC07163		9848		2871		inactive
30	CG5773	DRSC06955		5905		1959		inactive
31	AANATL5	DRSC05994		6672		2460		inactive
32	CG13423	DRSC06386		5827		2122		inactive
33	Dbp80	DRSC22034		7.09e5	7.89e5	3.22e5	3.34e5	inactive
34	CG32988	DRSC02692	Wg reporter activity lowered	2192	4024	1457	2201	inactive
35	CG13326	DRSC06363		11191		3203		inactive
36	CG14339	DRSC00369		3249	7757	1042	2771	inactive
37	CG9302	DRSC03191		5953		535		inactive
38	CG31997	DRSC17105		2000		1136		inactive
39	CG30375	DRSC06834		2679	4776	630	2267	inactive
40	CG18095	DRSC01948		2820	10080	1367	4361	inactive
41	Bet3	DRSC10388		5915		2492		inactive
42	CG33181	DRSC17971		12805		7673		inactive
43	CG33181	DRSC22376		7.68e5	8.98e5	3.72e5	4.15e5	inactive
44	GCC88	DRSC14264		15447		4582		inactive
45	CG33489	DRSC10588		8496		3029		inactive
46	CG5937	DRSC18392		17786		10134		inactive
47	ATP6 (retired record)	DRSC21278		16485		8731		inactive
48	Idh3b	DRSC16040		2325	8838	1094	2700	inactive
49	Hecw	DRSC18261		18428		6973		inactive
50	Hecw	DRSC18276		19689		8769		inactive

Part of the list above, reduced to “firefly reporter light, replicate 1”.
CG8399 [DRSC07163] = 9848
CG5773 [DRSC06955] = 5905
AANATL5 [DRSC05994] = 6672
